Laboratory results as given in PubChem BioAssay AID2685 (National Center for Advancing Translational Sciences (NCATS), 2010).
The list shows a part of the results. Further columns of the screen follow, without active or inactive calls. Compounds called inactive in the main read-out are mostly missing here. Potencies come from curve fits of mixed quality, noted in brackets.

Experiment: qHTS Assay for Lipid Storage Modulators in Drosophila S3 Cells;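 on cell number change: cells counted by Cell Tracker Red CMTPX staining in the red channel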
Settings: BODIPY lipid droplet fluorescence, 18-24 h; for cell number change: measured here: cell count max response, cells fed with added oleic acid
Outline: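 Drosophila S3 cells loaded with oleic acid (400 uM, as added) and compounds at several concentrations; lipid droplets imaged by 488-nm laser-scanning cytometry, 500–530 nm intensity and object ratio to cell channel. Percent activity normalized to 20 uM Triacsin C.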

[1] = measured here: cell number channel AC50, cells fed with added oleic acid
[2] = measured here: lipid fluorescence (Fed channel) AC50, cells fed with added oleic acid

Cc1ccc(-n2nc3c(=O)n(CC(=O)NCc4ccccc4)nc(C)c3c2C)cc1
cell number change: 43.2%
AC50 [1]: 0.82 µM [rising, full curve, poor fit]

COc1ccc(-c2c(-c3ccc(OCC(=O)NN)cc3O)n[nH]c2C(F)(F)F)cc1
cell number change: -17.1%
AC50 [2]: 32.6 µM [falling, partial curve, poor fit]

CCOC(=O)/C(=N\Nc1ccc(C(C)=O)cc1)c1csc(Nc2ccccc2)n1
AC50 [2]: 29.1 µM [falling, single point]

Cc1ccc(-n2nnnc2SCC(=O)N2c3ccccc3NC(=O)C2(C)C)cc1
cell number change: -30.7%
AC50 [1]: 18.4 µM [falling, single point]

Cc1cccc(NC(=S)N2CCN(c3ccccn3)CC2)c1
AC50 [2]: 0.116 µM [rising, full curve, poor fit]

CSc1ncc(C(C)=O)c(C)n1
cell number change: -28.4%
AC50 [2]: 18.4 µM [falling, partial curve]

CC1=CC(C)(C)[N+](C)=CN1c1ccccc1
cell number change: -30.1%
AC50 [1]: 1.03 µM [falling, full curve, poor fit]
AC50 [2]: 0.92 µM [falling, full curve]

COc1cc(C(=O)NCCC2=CCCCC2)cc(OC)c1OC
cell number change: 46.7%
AC50 [1]: 29.1 µM [rising, single point]

O=S(=O)(Nc1ccc(Oc2ncccn2)c(Cl)c1)c1ccc(Cl)cc1
cell number change: 11.4%

Cc1cccc(CCN2C(N(C)C)=NC[C@@H]2C)c1
cell number change: 12.2%
AC50 [2]: 0.651 µM [falling, single point]

CCn1c(SCC(=O)c2c(N)n(C3CC3)c(=O)[nH]c2=O)nnc1-c1ccccc1OC
cell number change: -16.3%
AC50 [1]: 0.00461 µM [rising, full curve, poor fit]
AC50 [2]: 0.731 µM [rising, partial curve, poor fit]

COc1ccccc1NC(=O)CCSc1nnnn1C
cell number change: 9.82%
AC50 [1]: 0.13 µM [falling, partial curve, poor fit]

CC1=CCC2C(=O)N(Cc3ccccc3)C(=O)C2C1 (centres undefined)
AC50 [1]: 0.164 µM [rising, full curve]

C=CCn1c(SC(C)C(=O)c2c(N)n(C)c(=O)n(C)c2=O)nnc1-c1ccoc1C (centres undefined)
cell number change: -41.6%
AC50 [1]: 29.1 µM [falling, single point]
AC50 [2]: 18.4 µM [falling, single point]

Cc1cc(C)c2cc(C#N)c(SCC(=O)Nc3cc(C)on3)nc2c1
cell number change: 1.28%
AC50 [1]: 6.51 µM [rising, single point]
AC50 [2]: 5.17 µM [falling, partial curve]

COc1ccc(OC)c(NC(=O)CN2C(=O)c3ccccc3S2(=O)=O)c1
cell number change: 43.7%
AC50 [1]: 3.66 µM [rising, partial curve, poor fit]

CCOc1ccc(N(CC(=O)NCc2cccc(OC)c2)S(=O)(=O)c2c(C)noc2C)cc1
AC50 [2]: 0.58 µM [falling, single point]

Cc1nnc(SCC(=O)Nc2nc(C(C)(C)C)cs2)s1
cell number change: -45.9%
AC50 [1]: 0.82 µM [falling, full curve, poor fit]
AC50 [2]: 1.16 µM [falling, full curve]

C/C(N)=C(/C#N)C(=O)COC(=O)Cc1coc2cc(C)ccc12
cell number change: -8.14%
AC50 [1]: 0.731 µM [rising, single point]

CCCC(=O)Nc1cccc(C(=O)Nc2nccs2)c1
cell number change: 30.3%
AC50 [1]: 0.00411 µM [rising, full curve, poor fit]

Cc1c(C(c2cccc(Br)c2)c2c(C)n(C)n(-c3ccccc3)c2=O)c(=O)n(-c2ccccc2)n1C
cell number change: -33.2%
AC50 [1]: 4.61 µM [falling, full curve, poor fit]

CCN1C(=O)[C@H]2[C@@H](c3ccc(C)cc3)N3C(=O)N(c4cccc(Cl)c4)C(=O)[C@@]3(Cc3ccccc3)[C@H]2C1=O
cell number change: 15.2%
AC50 [2]: 20.6 µM [rising, single point]

COc1ccc(CNc2nc3c(c(=O)[nH]c(=O)n3C)n2Cc2ccccc2)cc1
cell number change: 43.2%
AC50 [1]: 0.00411 µM [rising, full curve, poor fit]
AC50 [2]: 6.51 µM [falling, single point]

C/C(=N/NC(=O)c1ccncc1)c1cc2ccc(O)cc2oc1=O
cell number change: -0.264%
AC50 [2]: 29.1 µM [falling, single point]

CCOC(=O)N1CCC(=NNC(N)=O)CC1
cell number change: -42.3%
AC50 [1]: 3.26 µM [falling, full curve]
AC50 [2]: 3.26 µM [falling, full curve]

Cc1cc(=O)n2nc(N3CCCC(C(=O)NC4CCCCC4C)C3)sc2n1 (centres undefined)
cell number change: -3.98%

O=C(Nc1ccc(S(=O)(=O)NCc2ccco2)cc1)C1CCCCC1
cell number change: -15.2%
AC50 [2]: 16.4 µM [falling, single point]

C/C(=N\Nc1nc2ccccc2s1)c1cccs1
cell number change: 11.9%

Cc1cc([N+](=O)[O-])cc2ncccc12
cell number change: 39.7%
AC50 [1]: 13 µM [rising, partial curve]
AC50 [2]: 0.411 µM [rising, partial curve, poor fit]

O=C(OCCCN=C1NS(=O)(=O)c2ccccc21)c1ccccc1
cell number change: -18.2%
AC50 [2]: 29.1 µM [falling, single point]

COc1ccc(S(=O)(=O)Nc2ccc3ccccc3c2)cc1C
cell number change: -34.3%
AC50 [1]: 18.4 µM [falling, single point]
AC50 [2]: 6.51 µM [rising, partial curve, poor fit]

Cc1ccc(C(C)C)c(OCc2nc(-c3nonc3N)no2)c1
cell number change: -33.6%
AC50 [1]: 32.6 µM [falling, single point]
AC50 [2]: 29.1 µM [falling, single point]

CCCN(CC1CCCO1)C(=O)c1cc(COc2ccc(F)cc2F)on1 (centres undefined)
AC50 [1]: 1.64 µM [falling, full curve, poor fit]

COCCNC(=O)Nc1ccc2c(c1)N(C)C(=O)CS2
cell number change: 3.43%

CCN(CC)c1nc(C#N)nc(N(CC)CC)n1
cell number change: 1.23%
AC50 [2]: 0.00517 µM [falling, full curve, poor fit]

COc1ccc(N=C2S/C(=C\c3ccc(C)o3)C(=O)N2CC(C)C)cc1
cell number change: 0.0921%
AC50 [1]: 0.146 µM [rising, full curve, poor fit]

Cn1c(NCCCO)nc2c1c(=O)n(Cc1ccccc1F)c(=O)n2C
AC50 [2]: 6.51 µM [falling, single point]

O=c1c2cnn(-c3ccccc3Cl)c2ncn1Cc1cccnc1
cell number change: 57.8%
AC50 [1]: 11.6 µM [rising, partial curve]
AC50 [2]: 0.231 µM [falling, full curve, poor fit]

COc1ccc(C(=O)CC(SCC(NC(C)=O)C(=O)O)c2ccc(Cl)cc2)cc1OC (centres undefined)
cell number change: -28.7%
AC50 [2]: 18.4 µM [falling, single point]

COc1ccc(NC(=O)CN(C)C(=O)CCc2nc3cc(S(=O)(=O)N4CCOCC4)ccc3n2C)cc1
AC50 [1]: 2.59 µM [rising, partial curve]
AC50 [2]: 1.84 µM [rising, partial curve]

CCc1ccc(NC(=O)C2CC=CCC2C(=O)O)cc1 (centres undefined)
cell number change: -2.78%
AC50 [2]: 3.66 µM [falling, single point]

O=C(Cn1cc2c(n1)CCCC2)NCCCN1CCN(c2ccccc2F)CC1
AC50 [2]: 0.231 µM [rising, partial curve]

CCN(C(=O)COn1nnc2ccc(S(=O)(=O)N(C)C)cc21)C1CCS(=O)(=O)C1 (centres undefined)
cell number change: -4.45%
AC50 [1]: 0.058 µM [falling, full curve, poor fit]

N#C/C(=C(/O)CSc1nnc(Cc2cccs2)n1C1CCCCC1)c1nc2ccccc2[nH]1
cell number change: -6.14%
AC50 [2]: 2.06 µM [rising, partial curve]

Cc1ccc(NC(=O)CSCC(=O)Nc2cccc(S(=O)(=O)N3CCCCCC3)c2)cc1
cell number change: -21%
AC50 [2]: 29.1 µM [falling, single point]

CCn1c(SCC(O)c2ccccc2)nnc1-c1ccccc1 (centres undefined)
cell number change: 4.9%
AC50 [1]: 0.731 µM [falling, single point]
AC50 [2]: 10.3 µM [rising, partial curve, poor fit]

COc1ccc(S(=O)(=O)N(CC(=O)NC2CC2)c2ccc(C)cc2)cc1OC
cell number change: 9.77%
AC50 [2]: 29.1 µM [rising, single point]

C/C(=N/NC(=O)CSc1nc2ccccc2n1C)c1ccncc1
cell number change: 34.2%
AC50 [1]: 2.59 µM [rising, full curve]

CCOc1ccc(CNC(=O)CCS(=O)(=O)c2ccc3c(c2)oc(=O)n3C)cc1
cell number change: 7.37%
AC50 [1]: 3.66 µM [rising, single point]
AC50 [2]: 29.1 µM [rising, single point]

CC(CN1CCN(C)CC1)OC(=O)c1ccc(Cl)cc1 (centres undefined)
cell number change: -40.1%
AC50 [1]: 0.146 µM [falling, full curve, poor fit]
AC50 [2]: 0.291 µM [falling, full curve]

C=CCSc1nc2ccccc2c(=O)[nH]1
cell number change: -17.8%
AC50 [2]: 0.259 µM [falling, full curve]

O=C(Nc1ccc(F)cc1)c1cc(-c2ccncc2)nc2c(Cl)cccc12
cell number change: 54.9%
AC50 [1]: 0.0731 µM [rising, full curve]
AC50 [2]: 29.1 µM [falling, single point]

CNC(=S)NNC(=O)Cc1ccc(OC)c(OC)c1
cell number change: -34.8%
AC50 [1]: 0.0259 µM [falling, full curve, poor fit]
AC50 [2]: 32.6 µM [falling, single point]

O=C(CNc1ccccc1)N/N=C/c1ccc([N+](=O)[O-])cc1
cell number change: 13.3%
AC50 [2]: 1.84 µM [rising, partial curve, poor fit]

O=C(/C=C/c1ccccc1)N(Cc1cccc(Cl)c1)C1CCS(=O)(=O)C1 (centres undefined)
AC50 [2]: 0.00461 µM [rising, full curve, poor fit]
